In the assay the target is T1, PTCH2-eGFP (not stated (printed entry Q9Y6C5 is human PTCH2)) (UniProt Q9Y6C5).
T1 sequence: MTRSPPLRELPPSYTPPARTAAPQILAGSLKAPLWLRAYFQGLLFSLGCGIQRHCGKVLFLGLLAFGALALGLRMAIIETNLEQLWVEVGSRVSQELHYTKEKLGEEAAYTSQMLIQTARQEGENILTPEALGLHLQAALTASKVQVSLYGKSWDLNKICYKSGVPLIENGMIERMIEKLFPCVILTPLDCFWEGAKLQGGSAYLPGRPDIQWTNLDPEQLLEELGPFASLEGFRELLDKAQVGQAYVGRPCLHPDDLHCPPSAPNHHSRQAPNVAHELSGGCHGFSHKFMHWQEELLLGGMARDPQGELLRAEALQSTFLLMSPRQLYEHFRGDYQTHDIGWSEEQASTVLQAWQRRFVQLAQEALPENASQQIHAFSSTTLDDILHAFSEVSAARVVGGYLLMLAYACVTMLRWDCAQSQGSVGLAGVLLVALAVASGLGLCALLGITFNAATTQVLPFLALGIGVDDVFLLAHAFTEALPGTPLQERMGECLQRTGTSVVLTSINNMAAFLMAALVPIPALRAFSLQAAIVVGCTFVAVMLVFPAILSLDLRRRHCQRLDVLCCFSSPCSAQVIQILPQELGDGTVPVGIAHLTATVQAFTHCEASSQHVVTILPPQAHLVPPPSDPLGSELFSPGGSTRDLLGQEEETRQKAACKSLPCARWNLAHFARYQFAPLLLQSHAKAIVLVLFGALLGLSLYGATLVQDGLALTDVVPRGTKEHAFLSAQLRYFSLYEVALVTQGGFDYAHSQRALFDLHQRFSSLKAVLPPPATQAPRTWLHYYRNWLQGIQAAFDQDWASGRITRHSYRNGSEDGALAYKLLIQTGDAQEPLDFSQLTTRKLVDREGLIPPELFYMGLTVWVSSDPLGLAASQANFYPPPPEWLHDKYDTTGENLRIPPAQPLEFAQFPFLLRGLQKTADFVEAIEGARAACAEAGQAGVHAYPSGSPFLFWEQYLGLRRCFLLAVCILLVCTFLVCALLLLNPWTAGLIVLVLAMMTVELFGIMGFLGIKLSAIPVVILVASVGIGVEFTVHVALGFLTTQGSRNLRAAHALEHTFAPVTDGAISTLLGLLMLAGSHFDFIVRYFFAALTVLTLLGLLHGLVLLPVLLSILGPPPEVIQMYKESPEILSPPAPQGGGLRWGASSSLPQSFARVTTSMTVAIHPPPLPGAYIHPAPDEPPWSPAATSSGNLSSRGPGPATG
Nature of the assay: FRET or BRET. A general note: BRET reads energy transfer from a luciferase to a nearby fluorophore.

Results are given in words; binding and its absence hold for the method and conditions named. In cells and extracts the contact can be indirect. Some results given as binding are weak or reduced against the parent protein; the word gives no strength. Tags and fused reporters may be left off the sequences shown.

B1: PTCH2-mCherry (receptor, UniProt Q9Y6C5 1-1203)
chain: MTRSPPLRELPPSYTPPARTAAPQILAGSLKAPLWLRAYFQGLLFSLGCGIQRHCGKVLFLGLLAFGALALGLRMAIIETNLEQLWVEVGSRVSQELHYTKEKLGEEAAYTSQMLIQTARQEGENILTPEALGLHLQAALTASKVQVSLYGKSWDLNKICYKSGVPLIENGMIERMIEKLFPCVILTPLDCFWEGAKLQGGSAYLPGRPDIQWTNLDPEQLLEELGPFASLEGFRELLDKAQVGQAYVGRPCLHPDDLHCPPSAPNHHSRQAPNVAHELSGGCHGFSHKFMHWQEELLLGGMARDPQGELLRAEALQSTFLLMSPRQLYEHFRGDYQTHDIGWSEEQASTVLQAWQRRFVQLAQEALPENASQQIHAFSSTTLDDILHAFSEVSAARVVGGYLLMLAYACVTMLRWDCAQSQGSVGLAGVLLVALAVASGLGLCALLGITFNAATTQVLPFLALGIGVDDVFLLAHAFTEALPGTPLQERMGECLQRTGTSVVLTSINNMAAFLMAALVPIPALRAFSLQAAIVVGCTFVAVMLVFPAILSLDLRRRHCQRLDVLCCFSSPCSAQVIQILPQELGDGTVPVGIAHLTATVQAFTHCEASSQHVVTILPPQAHLVPPPSDPLGSELFSPGGSTRDLLGQEEETRQKAACKSLPCARWNLAHFARYQFAPLLLQSHAKAIVLVLFGALLGLSLYGATLVQDGLALTDVVPRGTKEHAFLSAQLRYFSLYEVALVTQGGFDYAHSQRALFDLHQRFSSLKAVLPPPATQAPRTWLHYYRNWLQGIQAAFDQDWASGRITRHSYRNGSEDGALAYKLLIQTGDAQEPLDFSQLTTRKLVDREGLIPPELFYMGLTVWVSSDPLGLAASQANFYPPPPEWLHDKYDTTGENLRIPPAQPLEFAQFPFLLRGLQKTADFVEAIEGARAACAEAGQAGVHAYPSGSPFLFWEQYLGLRRCFLLAVCILLVCTFLVCALLLLNPWTAGLIVLVLAMMTVELFGIMGFLGIKLSAIPVVILVASVGIGVEFTVHVALGFLTTQGSRNLRAAHALEHTFAPVTDGAISTLLGLLMLAGSHFDFIVRYFFAALTVLTLLGLLHGLVLLPVLLSILGPPPEVIQMYKESPEILSPPAPQGGGLRWGASSSLPQSFARVTTSMTVAIHPPPLPGAYIHPAPDEPPWSPAATSSGNLSSRGPGPATG
For B1, the binding entry is “binds”.

The values are drawn from publication doi:10.1101/2023.08.08.549832.
